Measured values reported in patent US20040126882A1, “Regulatable, catalytically active nucleic acids” (priority 2000, published 2004).
At least one compound was matched to its structure with a doubt left. Ends that are not written are not given here.

System: Rev-dependent ligase
Type: biochemical
Protocol: Ligation assays. Ligation assays were performed as described hereinabove.

RPPGFSPFR [bradykinin]
activation of the Rev-dependent ligase: Activation was observed only with HIV Tat peptide
